Source: PubChem BioAssay AID504444 (National Center for Advancing Translational Sciences (NCATS), 2011)
Out of some 360,000 compounds screened, about 7,500 (2.1%) were called active. Inconclusive results, whose numbers are uncertain, are shown with a selection of clear calls. Calls come from the whole dose curve; as a rule, active = well fitted inhibition curve with a large enough effect; inconclusive = small, poorly fitted or top-dose-only effect, or effect the other way; inactive = flat fitted curve, though single readings scatter. Potencies of inconclusive entries are doubtful fits and often do not repeat.
% is set by controls: 0 for no effect and ±100 for the full control effect; potency is the fitted concentration of half-maximal effect.

Experiment: Nrf2 qHTS screen for inhibitors; note: nearly all actives have a fitted effect of over 60% in size
Details: A549 ARE-Fluc reporter, luciferase luminescence, 18-24 h; activity change, negative = inhibition: at 46 µM (top of the series)
Method in brief: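 A549 ARE_Fluc cells (5000/well, 5% FBS OPTI-MEM) pre-incubated 2 h, then treated with compounds 18-24 h at 37C/5% CO2 in concentration-response. CellTiter-Fluor viability read first; BugLite luciferase luminescence after 15 min at room temperature gives Nrf2 activity.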
In the case of `CCOC(=O)c1c(C)[nH]c(C)c1S(=O)(=O)N1CCC(C(=O)Nc2ccc(OCC)cc2)CC1`, the Potency is reported as inconclusive: 32.6 µM [activator, single point].
For `CC(C)OCCCNc1ncnc2sc3c(c12)CCCC3`, the Potency was inconclusive: 18.4 µM [falling, single point].
For `Cn1c(=O)c(C(=O)Nc2ccccn2)c(O)c2ccccc21`, the Potency was inconclusive: 1.16 µM [activator, partial curve].
For `CCCC(=O)Nc1cc2nn(-c3ccccc3)nc2cc1C`, the Potency was inconclusive: 1.16 µM [activator, full curve].
For `Cc1cc(C(C)(C)C)oc1C(=O)N(CC(=O)NC1CCCC1)c1c(C)cccc1C`, the Potency was inconclusive: 20.6 µM [falling, partial curve, poor fit].
In the case of `Cc1cccc(N=C2NC(=O)/C(=C/c3cccnc3)S2)c1C`, the Potency is reported as inconclusive: 0.103 µM [activator, full curve, poor fit].
For `C/C(=N\NC(=S)NCCc1ccccc1)c1ccc(C#N)cc1`, the “activity change, negative = inhibition” value was inactive: 17.9%.
With `CCc1ccc(-c2cc(C(=O)NN3CCOCC3)c3ccccc3n2)s1` the Potency was inconclusive: 9.2 µM [activator, partial curve, poor fit].
For `O=C1CCC(=O)N(O)CCCCCNC(=O)CCC(=O)N(O)CCCCCNC(=O)CCC(=O)N(O)CCCCCN1`, the Potency was inconclusive: 29.1 µM [falling, single point].
For `CCc1cccc(NC(=O)CN(c2ccc(C)c(C)c2)S(=O)(=O)c2ccsc2C(=O)OC)c1`, the “activity change, negative = inhibition” value was inactive: 2.91%.
In the case of `CC(C)(C)c1cc(C(=O)NN)n(Cc2ccc(F)cc2)n1`, the “activity change, negative = inhibition” value is reported as inactive: -18.6%.
In the case of `Cc1cc(C)cc(NC(=O)Nc2cc(-c3ccccc3)nn2C)c1`, the Potency is reported as inconclusive: 6.51 µM [activator, partial curve, poor fit].
In the case of `c1ccc(-c2csc(Nc3cccnc3)n2)cc1`, the Potency is reported as inconclusive: 6.51 µM [activator, full curve].
For `COc1ccc(/C=C/C(=O)ONC2=NCCCCC2)cc1OC`, the Potency was inconclusive: 18.4 µM [activator, single point].
For `CCOC(=O)C1=C(CN2CCN(C(=O)OCC)CC2)NC(=O)NC1c1ccc2c(c1)OCO2` (centres undefined), the Potency was inconclusive: 16.4 µM [falling, partial curve, poor fit].
In the case of `O=C(NCc1ccc2c(c1)OCO2)c1cccc(C(=O)NCc2ccc3c(c2)OCO3)c1`, the Potency is reported as inconclusive: 11.6 µM [falling, single point].
In the case of `O=C1/C(=C/c2ccc(F)cc2)SC(=S)N1CC(=O)N1CCCCC1c1cccnc1` (centres undefined), the Potency is reported as inconclusive: 5.17 µM [falling, single point].
In the case of `Cc1sc2ncnc(N3CCC(C(=O)Nc4nc(-c5ccc(F)cc5)cs4)CC3)c2c1C`, the Potency is reported as inconclusive: 20.6 µM [falling, partial curve, poor fit].
In the case of `Oc1ccccc1-c1n[nH]c(-c2ccccc2O)n1`, the “activity change, negative = inhibition” value is reported as inactive: -13.7%.
For `O=C1C=Cc2cccc3ccc(O)c1c23`, the Potency was inconclusive: 29.1 µM [falling, single point].
With `COC(=O)c1sc(-c2ccc(Cl)cc2)cc1N` the Potency was inconclusive: 29.1 µM [activator, single point].
For `OCCCNc1nc(-c2ccc(Cl)cc2)nnc1-c1ccc(Br)cc1`, the Potency was inconclusive: 32.6 µM [falling, single point].
In the case of `COc1cc(/C=N/NC(=O)CC23CC4CC(CC(C4)C2)C3)cc(Br)c1OCC(=O)N(C)C`, the Potency is reported as inconclusive: 23.1 µM [falling, partial curve, poor fit].
For `CCCN1CCN(c2nnc(-n3cccc3C(=O)Nc3cc(Cl)ccc3C)s2)CC1`, the Potency was inconclusive: 29.1 µM [activator, single point].
With `CCOC(=O)N/N=C\c1sccc1C` the Potency was inconclusive: 20.6 µM [activator, partial curve].
For `c1ccc(CCNc2ccc3c(c2)Cc2ccccc2-3)nc1`, the Potency was inconclusive: 20.6 µM [activator, partial curve].
For `OC[C@H]1OC(O)[C@H](O)[C@@H](O)[C@H]1O` (some centres undefined), the “activity change, negative = inhibition” value was inactive: -5.01%.
In the case of `CCOCC(=O)NC1CCc2cc(OC)c(OC)c(OC)c2-c2ccc(SC)c(=O)cc21` (centres undefined), the Potency is reported as inconclusive: 0.013 µM [activator, full curve, poor fit].
With `N#C/C(=C(/O)COC(=O)Cc1c[nH]c2ccccc12)c1nc2ccccc2[nH]1` the Potency was inconclusive: 29.1 µM [falling, single point].
With `Cc1ccc(NC(=O)CSc2nnnn2C2CCCC2)cc1S(=O)(=O)N1CCOCC1` the Potency was inconclusive: 16.4 µM [falling, single point].
For `CCN1CCN(CCCOc2ccc(-c3ccccc3)cc2)CC1`, the Potency was inconclusive: 29.1 µM [activator, single point].
In the case of `COCCCNC(=O)/C(C#N)=C/c1c(N2CCN(c3cccc(Cl)c3)CC2)nc2c(C)cccn2c1=O`, the “activity change, negative = inhibition” value is reported as inactive: 3.08%.
For `CCOc1ccccc1-c1nc(-c2ccc(NC(=O)Cc3ccc(OC)cc3)cc2)no1`, the Potency was active: 20.6 µM.
With `CCCCOc1ccc(Cn2c(=O)sc3ccccc32)cc1OC` the Potency was inconclusive: 23.1 µM [falling, single point].
In the case of `Cc1ccc(C2NC(=O)c3sc(=S)n(-c4ccccc4)c3N2)cc1` (centres undefined), the Potency is reported as inconclusive: 16.4 µM [falling, partial curve, poor fit].
With `O=C(c1ccc(S(=O)(=O)N2CCCCCC2)cc1)N1CCCC(C(F)(F)F)C1` (centres undefined) the “activity change, negative = inhibition” value was inactive: -8.98%.
For `COc1cc2c(cc1OC)C1=NC(=O)CN1C(SCc1ccccc1C)=N2`, the Potency was active: 9.2 µM.
For `CCCN(CCC)CCCNC(=O)C1CCCN(Cc2nc(-c3ccc(Cl)cc3)oc2C)C1` (centres undefined), the Potency was inconclusive: 6.51 µM [activator, single point].
In the case of `COCCNC(=O)C1CCN(C(=O)c2cc3sccc3n2Cc2ccc(Cl)cc2)CC1`, the Potency is reported as active: 8.2 µM.
For `CC(C)(O)C#Cc1ccc(C(=O)Nc2ccc3c(c2)OCO3)s1`, the Potency was inconclusive: 20.6 µM [activator, partial curve].
With `O=C(NCc1ccccc1)C(c1ccccc1)N(Cc1ccc2c(c1)OCO2)C(=O)Cc1cccs1` (centres undefined) the Potency was inconclusive: 25.9 µM [falling, single point].
With `Nc1nn2cc(-c3ccccc3)nc2c2ccccc12` the Potency was inconclusive: 4.61 µM [activator, partial curve].
For `COc1ccc(C2(C)NC(=O)N(CC(=O)Nc3ccc(-c4nc5ccc(C)cc5s4)cc3)C2=O)cc1` (centres undefined), the Potency was inconclusive: 20.6 µM [activator, partial curve, poor fit].
In the case of `CCOc1ccc2nc(SCC(=O)Nc3ccc(F)cc3)nc(-c3ccccc3)c2c1`, the Potency is reported as inconclusive: 23.1 µM [activator, partial curve].
In the case of `Clc1ccc(-c2nnc(C3CCCCC3)o2)cc1`, the Potency is reported as inconclusive: 23.1 µM [activator, single point].
With `Brc1ccc(-c2noc(C3CCCCC3)n2)cc1` the Potency was inconclusive: 25.9 µM [activator, single point].
In the case of `COC(=O)c1c(C)[nH]c(C(=O)COc2ccc3ccc(=O)oc3c2)c1C`, the Potency is reported as inconclusive: 16.4 µM [falling, single point].
With `O=C(NCc1cccs1)c1cc(-c2ccccc2)on1` the Potency was inconclusive: 23.1 µM [activator, partial curve, poor fit].
With `OCCSc1nc(-c2ccccc2)nc2ccc(F)cc12` the Potency was inconclusive: 29.1 µM [falling, single point].
For `O=C(Nc1ccc(Cl)cc1)N(CCCN1CCOCC1)Cc1cccs1`, the Potency was inconclusive: 0.0046 µM [falling, full curve, poor fit].
In the case of `Cc1c(C(=O)O)oc2c1/C(=N\O)CCC2`, the Potency is reported as inconclusive: 29.1 µM [falling, single point].
With `Cc1ccc(OCCNC(=O)C(=O)NCc2ccco2)cc1` the Potency was inconclusive: 6.51 µM [falling, partial curve, poor fit].
For `COc1ccccc1CC(=O)Nc1cc(OC)c(NC(=O)c2ccccc2)cc1OC`, the Potency was active: 14.6 µM.
In the case of `CCOc1ccccc1/C=C/c1cc(C(=O)O)c2ccccc2n1`, the Potency is reported as inconclusive: 20.6 µM [activator, single point].
With `Cc1ccc(C)c(C(=O)COC(=O)c2cc([N+](=O)[O-])ccc2NCCO)c1` the Potency was inconclusive: 23.1 µM [falling, single point].
With `O=C(CCN1C(=O)c2ccccc2C1=O)Nc1ccc(-c2nc3ccccc3s2)cc1` the Potency was inconclusive: 10.3 µM [activator, partial curve, poor fit].
In the case of `O=C(CN(Cc1ccc(F)cc1)C(=O)CCC(=O)Nc1ccccn1)NCc1ccc(F)cc1`, the Potency is reported as inconclusive: 2.31 µM [falling, partial curve, poor fit].
In the case of `CC(=O)c1ccc(N2CCN(CC(=O)Nc3ccc4c(c3)OCCO4)CC2)cc1`, the Potency is reported as inconclusive: 29.1 µM [falling, single point].
With `COc1ccc(N2CCN(c3ccc(C(N)=O)cc3[N+](=O)[O-])CC2)cc1` the Potency was inconclusive: 20.6 µM [falling, single point].
With `Cc1ccc2ccc3c(c2n1)NS(=O)(=O)c1ccc(C(F)(F)F)cc1-3` the Potency was active: 8.2 µM.
With `O=C(NC(=S)Nc1ccc(F)cc1)c1ccc2c(c1)OCCO2` the Potency was inconclusive: 32.6 µM [falling, single point].
With `Cc1ccc(N(Cc2cc3cc(C)ccc3[nH]c2=O)S(=O)(=O)c2ccccc2)cc1` the “activity change, negative = inhibition” value was inactive: 9.31%.
For `Cc1cc(-c2cn3ccccc3n2)c(C)n1-c1ccccc1`, the Potency was inconclusive: 3.66 µM [activator, full curve].
For `COc1ccc(N2CCN(C(=O)C3CCCN(S(=O)(=O)c4ccc(C)cc4)C3)CC2)cc1` (centres undefined), the Potency was inconclusive: 23.1 µM [falling, single point].
